Results taken from PMC5016092.
No constants are given. Whether binding was seen depends on the method and setting. Binding can be weak; no strength is given. For some assays here: In cells and extracts the contact can be indirect. Values belong to the binder of their own block, whether it stands above or below them.

Sequences of proteins named here, by UniProt entry; tags and fusion partners are left off. A change or cut given only in a name is not applied to a line headed by its entry.
UniProt Q9BSF4: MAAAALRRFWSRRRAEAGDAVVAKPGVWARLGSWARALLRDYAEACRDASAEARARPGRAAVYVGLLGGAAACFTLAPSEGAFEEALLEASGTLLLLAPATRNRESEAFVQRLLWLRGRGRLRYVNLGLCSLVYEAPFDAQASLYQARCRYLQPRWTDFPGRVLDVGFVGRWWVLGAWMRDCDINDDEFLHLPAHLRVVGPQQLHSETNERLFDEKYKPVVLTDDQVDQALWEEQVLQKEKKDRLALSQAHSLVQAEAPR

Legend:
[1] = target: Tim29^3XFLAG (human) (UniProt Q9BSF4); test: co-IP; mitochondria solubilised in 0.5% digitonin-containing buffer, anti-FLAG resin, SDS-PAGE and immunoblotting (Figure 8A, C)
[2] = target: Tim29^3XFLAG (human) (UniProt Q9BSF4); test: cross-linking; isolated mitochondria with 0.2 mM DSP 1 hr 4°C, quenched with Tris, solubilised in 1% SDS and boiled, diluted in Triton X-100 buffer, anti-FLAG resin, cross-links cleaved in Laemmli buffer, immunoblotting
[3] = target: Tim29^3XFLAG (human) (UniProt Q9BSF4); test: co-IP; [35S]-labelled proteins imported for 60 min into mitochondria of control or Tim29^3XFLAG cells, solubilised in 0.5% digitonin-containing buffer, anti-FLAG resin, SDS-PAGE and autoradiography
[4] = target: Tim29^3XFLAG (human) (UniProt Q9BSF4); test: native gel or EMSA; antibody shift: [35S]-hTim22 imported at 37°C into isolated mitochondria, solubilised in 1% digitonin, incubated with anti-FLAG or anti-SDHA antibodies 30 min on ice, BN-PAGE and autoradiography
[5] = target: Tim29^3XFLAG (human) (UniProt Q9BSF4); test: co-IP; 0.5-1 mg mitochondria solubilised in digitonin-containing buffer, anti-FLAG resin, SDS-PAGE and immunoblotting (Figure 3C, D)

B1: hTim9 (protein, UniProt Q9Y5J7 1-89)
chain: MAAQIPESDQIKQFKEFLGTYNKLTETCFLDCVKDFTTREVKPEETTCSEHCLQKYLKMTQRISMRFQEYHIQQNEALAAKAGLLGQPR
binding [1]: binds
binding [2]: binds

B2: [^35S]-hTim9 (protein, UniProt Q9Y5J7 1-89)
chain: B1 chain
modifications: [35S]-methionine/cysteine label
binding [3]: binds

B4: [^35S]-hTom40 (protein, UniProt O96008 1-361)
chain: MGNVLAASSPPAGPPPPPAPALVGLPPPPPSPPGFTLPPLGGSLGAGTSTSRSSERTPGAATASASGAAEDGACGCLPNPGTFEECHRKCKELFPIQMEGVKLTVNKGLSNHFQVNHTVALSTIGESNYHFGVTYVGTKQLSPTEAFPVLVGDMDNSGSLNAQVIHQLGPGLRSKMAIQTQQSKFVNWQVDGEYRGSDFTAAVTLGNPDVLVGSGILVAHYLQSITPCLALGGELVYHRRPGEEGTVMSLAGKYTLNNWLATVTLGQAGMHATYYHKASDQLQVGVEFEASTRMQDTSVSFGYQLDLPKANLLFKGSVDSNWIVGATLEKKLPPLPLTLALGAFLNHRKNKFQCGFGLTIG
modifications: [35S]-methionine/cysteine label
binding [3]: binds

B5: [^35S]-hTim22 (protein, UniProt Q9Y584 1-194)
chain: MAAAAPNAGGSAPETAGSAEAPLQYSLLLQYLVGDKRQPRLLEPGSLGGIPSPAKSEEQKMIEKAMESCAFKAALACVGGFVLGGAFGVFTAGIDTNVGFDPKDPYRTPTAKEVLKDMGQRGMSYAKNFAIVGAMFSCTECLIESYRGTSDWKNSVISGCITGGAIGFRAGLKAGAIGCGGFAAFSAAIDYYLR
modifications: [35S]-methionine/cysteine label
binding [4]: binds

The next lines start with the values.

binding [1]: binds
binding [2]: binds
B3: hTom40 (protein, UniProt O96008 1-361)
chain: B4 chain

binding [5]: binds
B6: hTim22 (protein, UniProt Q9Y584 1-194)
chain: B5 chain
